Test results reported in PubChem BioAssay AID504834 (National Center for Advancing Translational Sciences (NCATS), 2011).
The whole screen tested about 320,000 compounds, of which about 22,000 (6.9%) were called active. Inconclusive means that the source gave no clear call. Such entries were picked first, then a sample of the others. The call rests on the fitted dose curve; in most records, active means well fitted inhibition curve with a large enough effect; inconclusive means small, poorly fitted or top-dose-only effect, or another doubt; inactive means no such curve, though single readings can be large or run the other way. Where the call is inconclusive, the potency comes from a doubtful curve fit.

Experiment: Primary qHTS for delayed death inhibitors of the malarial parasite plastid, 96 hour incubation
Details: P. falciparum luciferase reporter growth; series mostly up to 28.7 µM; activity change, negative = inhibition: at the top concentration
In short: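 Parasite growth measured via integrated firefly luciferase reporter in P. falciparum. Infected erythrocytes at 2% hematocrit, 0.05% parasitemia final were treated 96 hours at 37 C under 5% CO2, and luminescence was read.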
On the % scale 0 is the no-effect control and ±100 the full control effect; potency means the concentration at half of the fitted maximal effect.

| SMILES | Potency | activity change, negative = inhibition |
| --- | --- | --- |
| CN(C)C=NC(=O)c1cc(C(=O)c2ccccc2Cl)c[nH]1 | inconclusive: 4.15 µM [inhibitor, single point] |  |
| CCN(C(=O)CSc1ccc2ccccc2c1)C1CCS(=O)(=O)C1 (centres undefined) |  | inactive: 32.6% |
| O=C1CCCC(=O)N1c1ccc(O)cc1 | active: 11.7 µM |  |
| O=C(c1ccc([N+](=O)[O-])s1)N1CCN(c2cccc(Cl)c2)CC1 | active: 11.7 µM |  |
| COC(=O)C1=C(c2cccc(OCc3ccccc3)c2)C[C@@H]2CC[C@H]1N2C(=O)NCCOc1ccc(OC)cc1 | inconclusive: 3.7 µM [inhibitor, partial curve] |  |
| CCC(=O)NC(=S)N1CCN(c2ccc([N+](=O)[O-])cc2Cl)CC1 | inconclusive: 2.33 µM [inhibitor, partial curve] |  |
| Cc1c(C(=O)OCC(=O)Nc2ccccc2OC(F)F)cccc1[N+](=O)[O-] | inconclusive: 11.7 µM [inhibitor, single point] |  |
| CCc1cc2c3c(c1)C(C)CC(C)(C)N3C(=O)/C2=C1\SC(=O)NC1=O (centres undefined) | inconclusive: 18.5 µM [inhibitor, single point] |  |
| Cc1ccc(-c2ccc([C@H]3[C@H]4C=CC[C@@H](C)[C@@H]4C(=O)N3Cc3ccccc3)c(F)c2)cc1 | active: 10.4 µM |  |
| COC(=O)c1c(NC(=O)c2ccccc2N(C)S(=O)(=O)c2ccccc2)sc2c1CCCC2 | inconclusive: 13.1 µM [inhibitor, single point] |  |
| Cc1nc(C)c(-c2ccc(SCC(=O)Nc3cccc(Cl)c3C)nn2)s1 |  | inactive: -19.6% |
| Cc1ccc(-c2nn3cnnc3c3ccccc23)cc1C | inconclusive: 10.4 µM [inhibitor, single point] |  |
| O=[N+]([O-])c1ccc2c(c1)nc(CO)n2Cc1ccccc1 | inconclusive: 0.0026 µM [inhibitor, full curve, poor fit] |  |
| CCN(CC)C(=O)c1[nH]cnc1C(=O)Nc1cccc(Cl)c1 | inconclusive: 2.33 µM [inhibitor, single point] |  |
| CC(=O)Nc1ccc(S(=O)(=O)Nc2cc(C)cn(Cc3ccccc3)c2=O)cc1 | inconclusive: 2.33 µM [inhibitor, single point] |  |
| COc1cc(C(=O)NNC(=O)CCOc2cccc(Br)c2)cc(OC)c1OC | inconclusive: 6.57 µM [inhibitor, single point] |  |
| O=C(NNC(=O)c1cccs1)c1ccc(Cl)cc1 | inconclusive: 16.5 µM [inhibitor, single point] |  |
| N#Cc1ccsc1NC(=O)COC(=O)CCCSc1nc2ccccc2s1 | inconclusive: 13.1 µM [inhibitor, single point] |  |
| O=C(CCC(=O)Nc1ccccc1Cl)NNC(=S)Nc1ccccc1C(F)(F)F | active: 2.08 µM |  |
| Clc1cccc(CN2CCN(c3ncccn3)CC2)c1Cl | active: 13.1 µM |  |
| O=[N+]([O-])c1cccc(-c2ncc3ccccn23)c1 |  | inactive: 50.2% |
| O=C1Nc2cc(C(F)(F)F)ccc2N2CCCCC12 (centres undefined) |  | inactive: 4.99% |

| SMILES | Potency | activity change, negative = inhibition |
| --- | --- | --- |
| Cc1ccccc1-n1c(SCC(=O)NC(N)=O)nc2sc(-c3ccccc3)cc2c1=O | inconclusive: 14.7 µM [inhibitor, partial curve, poor fit] |  |
| CNC(=S)N=Nc1c(O)[nH]c2ccccc12 |  | inactive: -4.27% |
| COC(=O)Cn1c(C(=O)N2CCCC2)cc2c1C[C@H]1CN(C(=O)c3ccccc3)[C@@](Cc3ccc(F)cc3)(C(=O)OC)[C@@H]21 | active: 8.28 µM |  |
| COC(=O)Cc1nnc(NC(=O)c2ccccc2)s1 | inconclusive: 7.38 µM [inhibitor, partial curve, poor fit] |  |
| O=C(NCc1ccccn1)C(F)(F)C(F)(F)C(=O)NCc1ccccn1 |  | inactive: 80.5% |
| Cc1ccc(-c2ccc(/C=C3\SC(N4CCOCC4)=NC3=O)o2)cc1 |  | inactive: 6.24% |
| COc1ccc(COCC(O)CN2CCN(S(=O)(=O)c3ccc(C(C)C)cc3)CC2)cc1 (centres undefined) | inconclusive: 18.5 µM [inhibitor, single point] |  |
| Cc1sc2ncnc(N3CCC(C(=O)N(C)CC(=O)Nc4ccccc4Br)CC3)c2c1C | inconclusive: 2.33 µM [inhibitor, full curve] |  |
| N#C/C(=C\c1ccc(-c2ccc(S(=O)(=O)N3CCOCC3)cc2)o1)C(=O)NC1CC1 | inconclusive: 18.5 µM [inhibitor, single point] |  |
| CC1(C)CC(=O)c2sc(NC(=O)CN3CCCCC3)nc2C1 | inconclusive: 18.5 µM [inhibitor, single point] |  |
| Cc1ncc([N+](=O)[O-])n1CC(=O)Nc1ccc(F)cc1 | inconclusive: 18.5 µM [inhibitor, single point] |  |
| CN(C)S(=O)(=O)c1ccc(C(=O)Nc2nc3ccccc3[nH]2)cc1 |  | inactive: 281% |
| O=C(O)CSc1nc(-c2ccc(Cl)cc2)nc2c1oc1ccccc12 | inconclusive: 13.1 µM [inhibitor, partial curve, poor fit] |  |
| COc1ccc(Cn2c(=O)c3[nH]cnc3n(-c3ccc(C)cc3)c2=O)cc1 | active: 2.33 µM |  |
| [O-]/[N+](=C/c1ccccc1)c1ccccc1 | inconclusive: 14.7 µM [inhibitor, single point] |  |
| CC(NC(=O)c1ccc(NC(=O)CC2SC(N3CCCC3)=NC2=O)cc1)c1ccccc1 (centres undefined) | inconclusive: 10.4 µM [inhibitor, partial curve] |  |
| O=C(CSc1ccccc1F)NC(=O)NCc1ccco1 |  | inactive: 32.5% |
| Cc1cc(C(=O)CSc2nn3c(=O)c(C(C)(C)C)nnc3s2)c(C)n1C1CC1 | inconclusive: 18.5 µM [inhibitor, single point] |  |
| C#CCNC(=O)C1=C[C@@H](c2ccc(C(F)(F)F)cc2)C[C@@H](OCCCCO)O1 | inconclusive: 11.7 µM [inhibitor, single point] |  |
| COc1ccc(NC(=O)CSc2nc3ccccc3nc2N2CCCCC2)cc1 | inconclusive: 18.5 µM [inhibitor, single point] |  |
| CNCCC(=O)N1c2ccccc2CCc2ccc(NC(=O)OC)cc21 |  | inactive: -5.19% |
| O=c1c2ccccc2nc(SCc2ccccc2Cl)n1Cc1ccccc1 | inconclusive: 10.4 µM [inhibitor, partial curve, poor fit] |  |

A run of entries of the results above, as a working copy:

| SMILES | Potency | activity change, negative = inhibition |
| --- | --- | --- |
| Cc1ncc([N+](=O)[O-])n1CC(=O)Nc1ccc(F)cc1 | inconclusive: 18.5 µM [inhibitor, single point] |  |
| CN(C)S(=O)(=O)c1ccc(C(=O)Nc2nc3ccccc3[nH]2)cc1 |  | inactive: 281% |
| O=C(O)CSc1nc(-c2ccc(Cl)cc2)nc2c1oc1ccccc12 | inconclusive: 13.1 µM [inhibitor, partial curve, poor fit] |  |
| COc1ccc(Cn2c(=O)c3[nH]cnc3n(-c3ccc(C)cc3)c2=O)cc1 | active: 2.33 µM |  |
| [O-]/[N+](=C/c1ccccc1)c1ccccc1 | inconclusive: 14.7 µM [inhibitor, single point] |  |
| CC(NC(=O)c1ccc(NC(=O)CC2SC(N3CCCC3)=NC2=O)cc1)c1ccccc1 (centres undefined) | inconclusive: 10.4 µM [inhibitor, partial curve] |  |
| O=C(CSc1ccccc1F)NC(=O)NCc1ccco1 |  | inactive: 32.5% |
| Cc1cc(C(=O)CSc2nn3c(=O)c(C(C)(C)C)nnc3s2)c(C)n1C1CC1 | inconclusive: 18.5 µM [inhibitor, single point] |  |
| C#CCNC(=O)C1=C[C@@H](c2ccc(C(F)(F)F)cc2)C[C@@H](OCCCCO)O1 | inconclusive: 11.7 µM [inhibitor, single point] |  |
| COc1ccc(NC(=O)CSc2nc3ccccc3nc2N2CCCCC2)cc1 | inconclusive: 18.5 µM [inhibitor, single point] |  |
| CNCCC(=O)N1c2ccccc2CCc2ccc(NC(=O)OC)cc21 |  | inactive: -5.19% |
| O=c1c2ccccc2nc(SCc2ccccc2Cl)n1Cc1ccccc1 | inconclusive: 10.4 µM [inhibitor, partial curve, poor fit] |  |
